Reference: the supplement of paper PMC10849652
Some of the results follow.

The chains behind the UniProt entries cited, without tags or fusion partners. Where a name states a change or a piece, a line headed by the entry shows the natural chain unless it says otherwise.
UniProt O75718: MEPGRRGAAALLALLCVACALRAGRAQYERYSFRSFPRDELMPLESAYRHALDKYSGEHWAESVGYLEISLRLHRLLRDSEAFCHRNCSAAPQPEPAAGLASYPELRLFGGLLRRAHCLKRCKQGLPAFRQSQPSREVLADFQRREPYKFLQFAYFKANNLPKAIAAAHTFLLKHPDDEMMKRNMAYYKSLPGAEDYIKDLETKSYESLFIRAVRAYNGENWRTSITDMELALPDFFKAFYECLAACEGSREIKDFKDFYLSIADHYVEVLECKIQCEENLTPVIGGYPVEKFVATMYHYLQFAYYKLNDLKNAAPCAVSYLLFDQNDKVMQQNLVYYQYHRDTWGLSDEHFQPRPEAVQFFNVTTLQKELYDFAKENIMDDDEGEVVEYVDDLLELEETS
UniProt Q96SW2: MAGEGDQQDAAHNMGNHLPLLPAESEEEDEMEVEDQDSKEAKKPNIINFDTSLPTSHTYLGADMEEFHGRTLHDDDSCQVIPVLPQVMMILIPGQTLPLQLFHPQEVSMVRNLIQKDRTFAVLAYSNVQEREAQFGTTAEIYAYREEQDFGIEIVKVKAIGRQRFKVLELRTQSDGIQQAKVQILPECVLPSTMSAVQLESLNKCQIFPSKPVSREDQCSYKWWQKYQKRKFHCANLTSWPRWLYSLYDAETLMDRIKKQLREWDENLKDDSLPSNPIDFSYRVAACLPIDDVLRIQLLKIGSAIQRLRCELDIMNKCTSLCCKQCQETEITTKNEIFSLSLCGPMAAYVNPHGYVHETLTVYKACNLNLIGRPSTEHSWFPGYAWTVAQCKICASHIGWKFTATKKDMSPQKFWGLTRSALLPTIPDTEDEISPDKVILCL
UniProt P08574: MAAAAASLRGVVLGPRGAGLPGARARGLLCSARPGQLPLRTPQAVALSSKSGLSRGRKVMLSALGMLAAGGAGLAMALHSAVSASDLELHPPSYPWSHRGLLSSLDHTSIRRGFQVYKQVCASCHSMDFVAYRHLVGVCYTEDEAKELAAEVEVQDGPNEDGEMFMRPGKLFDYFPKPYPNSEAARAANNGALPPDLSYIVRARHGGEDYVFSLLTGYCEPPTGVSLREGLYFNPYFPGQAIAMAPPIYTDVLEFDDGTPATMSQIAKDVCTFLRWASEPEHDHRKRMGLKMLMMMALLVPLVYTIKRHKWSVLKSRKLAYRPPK
UniProt Q5JQC4: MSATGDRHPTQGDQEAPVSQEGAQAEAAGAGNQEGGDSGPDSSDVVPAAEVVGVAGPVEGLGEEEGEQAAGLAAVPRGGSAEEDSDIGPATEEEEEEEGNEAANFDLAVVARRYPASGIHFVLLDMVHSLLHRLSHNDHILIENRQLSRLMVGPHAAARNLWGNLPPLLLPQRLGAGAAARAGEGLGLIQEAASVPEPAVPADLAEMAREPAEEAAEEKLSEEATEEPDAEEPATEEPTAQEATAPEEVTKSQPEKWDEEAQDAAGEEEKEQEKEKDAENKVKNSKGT
UniProt P39880: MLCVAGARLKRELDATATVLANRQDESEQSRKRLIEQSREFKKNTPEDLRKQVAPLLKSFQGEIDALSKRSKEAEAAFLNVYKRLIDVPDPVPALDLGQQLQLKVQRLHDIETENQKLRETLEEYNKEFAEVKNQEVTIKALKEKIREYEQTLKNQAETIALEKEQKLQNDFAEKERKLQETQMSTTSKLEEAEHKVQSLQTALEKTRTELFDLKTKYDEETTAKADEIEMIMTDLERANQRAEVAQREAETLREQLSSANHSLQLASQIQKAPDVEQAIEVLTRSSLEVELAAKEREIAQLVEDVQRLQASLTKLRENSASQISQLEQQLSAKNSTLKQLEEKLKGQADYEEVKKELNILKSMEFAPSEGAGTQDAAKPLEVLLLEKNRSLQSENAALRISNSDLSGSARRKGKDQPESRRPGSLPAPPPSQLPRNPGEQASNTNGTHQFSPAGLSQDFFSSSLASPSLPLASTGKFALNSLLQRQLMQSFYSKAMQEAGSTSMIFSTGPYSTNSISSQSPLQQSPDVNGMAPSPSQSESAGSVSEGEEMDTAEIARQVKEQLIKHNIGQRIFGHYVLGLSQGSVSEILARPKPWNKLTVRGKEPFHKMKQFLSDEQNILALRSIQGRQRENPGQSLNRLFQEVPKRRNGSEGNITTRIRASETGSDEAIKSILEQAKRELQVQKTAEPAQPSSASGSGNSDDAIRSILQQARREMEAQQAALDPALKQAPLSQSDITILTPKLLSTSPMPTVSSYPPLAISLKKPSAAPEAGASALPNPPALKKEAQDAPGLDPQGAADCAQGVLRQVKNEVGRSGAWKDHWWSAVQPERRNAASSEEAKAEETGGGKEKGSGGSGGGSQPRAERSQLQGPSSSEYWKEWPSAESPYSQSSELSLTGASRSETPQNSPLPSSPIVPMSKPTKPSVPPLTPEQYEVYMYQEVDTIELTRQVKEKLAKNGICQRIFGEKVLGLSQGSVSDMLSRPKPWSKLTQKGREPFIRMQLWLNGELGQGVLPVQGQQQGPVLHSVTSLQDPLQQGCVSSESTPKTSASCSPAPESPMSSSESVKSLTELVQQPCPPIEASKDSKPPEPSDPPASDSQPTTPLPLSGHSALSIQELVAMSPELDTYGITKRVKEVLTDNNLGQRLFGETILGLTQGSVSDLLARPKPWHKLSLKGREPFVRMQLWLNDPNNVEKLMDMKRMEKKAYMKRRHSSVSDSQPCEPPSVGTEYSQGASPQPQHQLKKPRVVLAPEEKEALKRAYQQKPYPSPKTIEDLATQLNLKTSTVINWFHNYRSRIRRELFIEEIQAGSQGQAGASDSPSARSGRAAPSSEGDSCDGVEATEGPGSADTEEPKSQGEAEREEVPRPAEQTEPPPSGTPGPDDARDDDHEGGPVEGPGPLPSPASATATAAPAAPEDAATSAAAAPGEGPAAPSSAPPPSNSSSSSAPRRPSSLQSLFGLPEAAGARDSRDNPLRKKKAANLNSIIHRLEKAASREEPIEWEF
UniProt Q6UUV9: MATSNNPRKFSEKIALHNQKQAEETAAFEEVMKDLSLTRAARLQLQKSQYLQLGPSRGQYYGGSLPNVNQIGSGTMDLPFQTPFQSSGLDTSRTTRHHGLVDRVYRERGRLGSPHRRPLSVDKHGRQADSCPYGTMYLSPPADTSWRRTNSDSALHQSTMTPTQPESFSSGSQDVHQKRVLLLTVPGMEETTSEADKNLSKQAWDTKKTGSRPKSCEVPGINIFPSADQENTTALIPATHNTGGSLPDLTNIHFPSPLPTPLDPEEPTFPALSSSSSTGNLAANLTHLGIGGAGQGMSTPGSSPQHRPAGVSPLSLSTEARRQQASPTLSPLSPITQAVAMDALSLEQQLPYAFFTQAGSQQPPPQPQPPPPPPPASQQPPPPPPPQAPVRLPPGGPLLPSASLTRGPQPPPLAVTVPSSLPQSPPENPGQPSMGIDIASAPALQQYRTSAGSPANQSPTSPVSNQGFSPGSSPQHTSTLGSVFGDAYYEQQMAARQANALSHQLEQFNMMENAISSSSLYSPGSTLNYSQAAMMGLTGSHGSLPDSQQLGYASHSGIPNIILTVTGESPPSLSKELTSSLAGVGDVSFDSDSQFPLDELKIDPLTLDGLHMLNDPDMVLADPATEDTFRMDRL
UniProt Q93034, whole entry, looked up: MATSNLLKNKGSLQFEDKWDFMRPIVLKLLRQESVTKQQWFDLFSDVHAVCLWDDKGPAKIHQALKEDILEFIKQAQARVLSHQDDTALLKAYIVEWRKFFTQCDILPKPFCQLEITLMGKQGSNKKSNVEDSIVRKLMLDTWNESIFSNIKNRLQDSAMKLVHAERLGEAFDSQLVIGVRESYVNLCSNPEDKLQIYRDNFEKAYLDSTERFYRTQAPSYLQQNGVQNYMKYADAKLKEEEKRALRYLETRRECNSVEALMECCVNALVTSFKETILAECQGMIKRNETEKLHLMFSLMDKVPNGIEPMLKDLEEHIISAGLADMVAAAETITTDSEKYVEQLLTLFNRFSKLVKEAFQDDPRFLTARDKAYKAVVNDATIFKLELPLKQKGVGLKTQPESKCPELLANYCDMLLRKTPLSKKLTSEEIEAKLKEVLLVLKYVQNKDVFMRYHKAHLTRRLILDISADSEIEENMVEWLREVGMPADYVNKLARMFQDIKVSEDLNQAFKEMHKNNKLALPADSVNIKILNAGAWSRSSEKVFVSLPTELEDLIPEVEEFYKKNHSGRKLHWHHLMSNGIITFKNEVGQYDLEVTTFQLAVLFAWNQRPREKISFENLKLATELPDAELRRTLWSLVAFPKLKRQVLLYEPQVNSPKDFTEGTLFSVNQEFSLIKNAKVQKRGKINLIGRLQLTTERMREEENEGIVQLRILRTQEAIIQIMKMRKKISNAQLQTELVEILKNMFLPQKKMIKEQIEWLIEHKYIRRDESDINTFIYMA
UniProt Q9P0U4, whole entry, looked up: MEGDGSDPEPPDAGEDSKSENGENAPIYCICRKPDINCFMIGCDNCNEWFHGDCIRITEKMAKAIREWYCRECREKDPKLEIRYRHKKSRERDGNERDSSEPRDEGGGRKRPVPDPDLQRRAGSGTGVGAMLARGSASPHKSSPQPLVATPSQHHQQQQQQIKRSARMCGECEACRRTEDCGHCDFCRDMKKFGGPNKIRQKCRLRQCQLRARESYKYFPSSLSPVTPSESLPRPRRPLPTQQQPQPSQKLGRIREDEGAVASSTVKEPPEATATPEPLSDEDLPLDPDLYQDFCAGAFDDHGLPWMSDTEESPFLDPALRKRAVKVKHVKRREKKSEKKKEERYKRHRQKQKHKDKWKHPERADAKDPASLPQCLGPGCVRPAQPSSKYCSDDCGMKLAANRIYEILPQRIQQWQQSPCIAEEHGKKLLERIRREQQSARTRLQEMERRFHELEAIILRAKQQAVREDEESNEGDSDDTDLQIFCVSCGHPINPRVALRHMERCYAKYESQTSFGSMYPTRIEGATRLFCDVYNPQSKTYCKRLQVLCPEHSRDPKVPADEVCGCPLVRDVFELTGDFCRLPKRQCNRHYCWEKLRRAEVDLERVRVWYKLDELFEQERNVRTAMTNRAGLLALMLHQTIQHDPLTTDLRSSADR
UniProt P68400, whole entry, looked up: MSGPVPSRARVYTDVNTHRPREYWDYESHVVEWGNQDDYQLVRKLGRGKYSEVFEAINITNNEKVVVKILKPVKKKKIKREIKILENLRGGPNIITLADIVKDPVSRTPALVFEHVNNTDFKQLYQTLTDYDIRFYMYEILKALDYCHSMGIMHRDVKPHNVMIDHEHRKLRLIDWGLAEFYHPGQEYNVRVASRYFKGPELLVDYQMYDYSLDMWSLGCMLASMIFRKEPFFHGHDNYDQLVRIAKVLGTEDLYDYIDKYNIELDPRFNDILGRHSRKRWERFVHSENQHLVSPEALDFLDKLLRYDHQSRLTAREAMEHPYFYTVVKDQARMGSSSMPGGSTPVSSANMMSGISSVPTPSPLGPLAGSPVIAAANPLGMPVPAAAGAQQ
UniProt Q9NTM9: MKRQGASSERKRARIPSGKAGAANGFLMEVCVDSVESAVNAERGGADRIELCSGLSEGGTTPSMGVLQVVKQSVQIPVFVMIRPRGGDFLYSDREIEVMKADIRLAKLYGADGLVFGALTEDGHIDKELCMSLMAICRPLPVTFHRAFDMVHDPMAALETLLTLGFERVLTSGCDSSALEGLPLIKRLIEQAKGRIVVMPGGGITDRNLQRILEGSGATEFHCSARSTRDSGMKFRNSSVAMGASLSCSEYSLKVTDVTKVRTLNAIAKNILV
UniProt Q2TBE0: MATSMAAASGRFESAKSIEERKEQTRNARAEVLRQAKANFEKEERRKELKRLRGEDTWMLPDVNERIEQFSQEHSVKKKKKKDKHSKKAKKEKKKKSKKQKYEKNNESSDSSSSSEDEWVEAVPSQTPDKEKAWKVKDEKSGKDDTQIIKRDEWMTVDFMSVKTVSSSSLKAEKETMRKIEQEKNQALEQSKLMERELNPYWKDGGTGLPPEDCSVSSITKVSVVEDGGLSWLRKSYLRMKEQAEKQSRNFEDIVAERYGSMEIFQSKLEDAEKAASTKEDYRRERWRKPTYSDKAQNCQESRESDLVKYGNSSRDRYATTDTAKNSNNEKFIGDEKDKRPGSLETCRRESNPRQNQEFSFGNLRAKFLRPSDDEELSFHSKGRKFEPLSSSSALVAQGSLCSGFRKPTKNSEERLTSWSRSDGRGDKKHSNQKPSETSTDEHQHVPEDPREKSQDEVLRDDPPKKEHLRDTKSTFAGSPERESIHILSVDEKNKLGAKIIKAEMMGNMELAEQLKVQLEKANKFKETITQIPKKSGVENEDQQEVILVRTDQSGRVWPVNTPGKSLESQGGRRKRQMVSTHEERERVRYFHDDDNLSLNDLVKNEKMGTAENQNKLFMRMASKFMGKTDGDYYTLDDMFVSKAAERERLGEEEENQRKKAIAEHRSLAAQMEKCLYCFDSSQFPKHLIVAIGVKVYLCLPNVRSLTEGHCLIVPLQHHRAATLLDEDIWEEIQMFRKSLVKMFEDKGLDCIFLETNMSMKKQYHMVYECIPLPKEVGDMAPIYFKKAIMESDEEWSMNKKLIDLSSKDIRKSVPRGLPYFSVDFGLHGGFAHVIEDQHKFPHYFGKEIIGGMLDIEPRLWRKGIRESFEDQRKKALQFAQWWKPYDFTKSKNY

What follows are targets tested with CCCS(=O)(=O)Nc1ccc(F)c(C(=O)c2c[nH]c3ncc(-c4ccc(Cl)cc4)cc23)c1F [vemurafenib] (assay: log2 fold change, soluble protein after heating vs DMSO (PISA); higher = thermal stabilisation; K562 lysate, 10 uM; active = over 0.2 and 3.5 SD of the protein, either way, in both replicates (recomputed)).
Summary of the method: (§1)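 The values are log-two fold changes in thermal stability compared with solvent controls and come from duplicates. They were obtained by TMTpro 16plex LC-MS/MS, with channel sums equalised, on the supernatant after 21,000xg for 90 min. That supernatant came from crude K562 extract at 1 mg/mL protein treated with 10 μM compound for 30 min, heated for 3 min across 48°C-58°C, pooled and brought to 0.5% NP-40 at 4°C.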

log2 fold change, inactive:
CRTAP (UniProt O75718) -0.036
CRBN (UniProt Q96SW2) -0.026
CT45A10 (UniProt P0DMU9) -0.071
CRLF3 (UniProt Q8IUI8) 0.028
CTNNA1 (UniProt P35221) 0.004
CYC1 (UniProt P08574) -0.086
CTNND1 isoform 3 (UniProt O60716) 0.06
CUL2 isoform 2 (UniProt Q13617) 0.009
CT47A1 (UniProt Q5JQC4) 0.071
CUX1 isoform 3 (UniProt P39880) 0.059
CSE1L (UniProt P55060) -0.017
CRTC1 (UniProt Q6UUV9) 0.081
CTBS (UniProt Q01459) 0.051
CUL1 (UniProt Q13616) -0.008
CWF19L1 (UniProt Q69YN2) 0.027
CYB5R3 isoform 3 (UniProt P00387) 0.043
CTTN (UniProt Q14247) -0.008
CYB561A3 isoform 2 (UniProt Q8NBI2) 0.007
CUL5 (UniProt Q93034) -0.015
CROCC (UniProt Q5TZA2) -0.038
CREG1 (UniProt O75629) -0.022
CYB5R2 (UniProt Q6BCY4) 0.078
CXXC1 isoform 2 (UniProt Q9P0U4) -0.029
CSNK2A1 (UniProt P68400) -0.124
CSRP3 (UniProt P50461) -0.028
CUTC (UniProt Q9NTM9) -0.025
CRNKL1 (UniProt Q9BZJ0) -0.038
CREBBP (UniProt Q92793) 0.022
CYB5R4 (UniProt Q7L1T6) -0.071
CTPS1 (UniProt P17812) -0.008
CRELD2 isoform 5 (UniProt Q6UXH1) -0.054
CWF19L2 (UniProt Q2TBE0) -0.042

Each target was assayed with CCCS(=O)(=O)Nc1ccc(F)c(C(=O)c2c[nH]c3ncc(Cl)cc23)c1F in the same assay as above.
Summary of the method: as §1

log2 fold change, inactive:
CRTAP (UniProt O75718) 0.007
CRBN (UniProt Q96SW2) 0
CT45A10 (UniProt P0DMU9) 0.012
CRLF3 (UniProt Q8IUI8) 0.015
CTNNA1 (UniProt P35221) 0.006
CYC1 (UniProt P08574) -0.024
CTNND1 isoform 3 (UniProt O60716) 0.037
CUL2 isoform 2 (UniProt Q13617) 0.003
CT47A1 (UniProt Q5JQC4) 0.031
CUX1 isoform 3 (UniProt P39880) -0.012
CSE1L (UniProt P55060) 0.007
CRTC1 (UniProt Q6UUV9) -0.068
CTBS (UniProt Q01459) -0.04
CUL1 (UniProt Q13616) 0.001
CWF19L1 (UniProt Q69YN2) 0.025
CYB5R3 isoform 3 (UniProt P00387) -0.022
CTTN (UniProt Q14247) -0.001
CYB561A3 isoform 2 (UniProt Q8NBI2) -0.007
CUL5 (UniProt Q93034) -0.006
CROCC (UniProt Q5TZA2) -0.077
CREG1 (UniProt O75629) 0.004
CYB5R2 (UniProt Q6BCY4) -0.014
CXXC1 isoform 2 (UniProt Q9P0U4) -0.117
CSNK2A1 (UniProt P68400) 0.017
CSRP3 (UniProt P50461) -0.006
CUTC (UniProt Q9NTM9) 0.013
CRNKL1 (UniProt Q9BZJ0) -0.128
CREBBP (UniProt Q92793) -0.064
CYB5R4 (UniProt Q7L1T6) -0.027
CTPS1 (UniProt P17812) 0.016
CRELD2 isoform 5 (UniProt Q6UXH1) 0.019
CWF19L2 (UniProt Q2TBE0) -0.177

What follows are targets tested with CCN(CCCOc1ccc2c(Nc3cc(CC(=O)Nc4cccc(F)c4)[nH]n3)ncnc2c1)CCOP(=O)(O)O [barasertib] in the same assay as above.
Summary of the method: as §1

log2 fold change, inactive:
CRTAP (UniProt O75718) -0.061
CRBN (UniProt Q96SW2) 0.081
CT45A10 (UniProt P0DMU9) -0.014
CRLF3 (UniProt Q8IUI8) 0.003
CTNNA1 (UniProt P35221) 0.01
CYC1 (UniProt P08574) -0.018
CTNND1 isoform 3 (UniProt O60716) 0.036
CUL2 isoform 2 (UniProt Q13617) 0.02
CT47A1 (UniProt Q5JQC4) -0.012
CUX1 isoform 3 (UniProt P39880) -0.011
CSE1L (UniProt P55060) -0.005
CRTC1 (UniProt Q6UUV9) -0.196
CTBS (UniProt Q01459) 0.059
CUL1 (UniProt Q13616) -0.011
CWF19L1 (UniProt Q69YN2) -0.052
CYB5R3 isoform 3 (UniProt P00387) -0.033
CTTN (UniProt Q14247) -0.054
CYB561A3 isoform 2 (UniProt Q8NBI2) 0.03
CUL5 (UniProt Q93034) 0.01
CROCC (UniProt Q5TZA2) 0.079
CREG1 (UniProt O75629) 0.037
CYB5R2 (UniProt Q6BCY4) 0.055
CXXC1 isoform 2 (UniProt Q9P0U4) -0.02
CSNK2A1 (UniProt P68400) -0.025
CSRP3 (UniProt P50461) -0.05
CUTC (UniProt Q9NTM9) 0.009
CRNKL1 (UniProt Q9BZJ0) 0.024
CREBBP (UniProt Q92793) 0.001
CYB5R4 (UniProt Q7L1T6) 0.332
CTPS1 (UniProt P17812) -0.024
CRELD2 isoform 5 (UniProt Q6UXH1) -0.175
CWF19L2 (UniProt Q2TBE0) 0.091
